Values from PubChem BioAssay AID1224827 (NIAID, 2016)
Shown is one part, drawn at random, of about 3,800 deposited reagents. About 2,200 of all reagents (57%) count as active. 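Active means a strong reporter change in either direction; calls are per siRNA, not per gene; qiagen siRNAs gave weaker effects.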 A number with no mark means an inactive call. Reagents against one gene are numbered here. Further read-outs or replicates are left out here. Reagent sequences are not shown.

Assay: 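Identify regulators of the macrophage TNF-alpha response to bacterial LPS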 (follow-up of hits)
Cells: RAW264.7 G9 mouse macrophage reporter clone
Knock-down reagent: single siRNA against mouse genes, 100 nM siRNA
Timing: siRNA for 2 days, then LPS about 16 h
Treatment: bacterial lipopolysaccharide (LPS), 10 ng/ml, cells fixed after overnight (about 16 h) stimulation
Detection: 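Imaged nuclear TNF reporter intensity, background removed, scaled per plate and to non-targeting control wells, as z-scores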
Reading the numbers: TNF reporter z-score, mean: higher = stronger Tnf promoter reporter signal; gene median z, three same-vendor siRNAs: higher = stronger Tnf reporter signal for the gene
Call rule: 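Active siRNA: replicate-mean z-score of 2 or more, or -2 or less; no calls for control wells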

| Target gene | reagent | TNF reporter z-score, mean | gene median z, three same-vendor siRNAs |
| --- | --- | --- | --- |
| Rpsa (ribosomal protein SA) | 1 | 0.342 | -1.87 |
| Rpsa (ribosomal protein SA) | 2 | -1.88 | -1.87 |
| Rpsa (ribosomal protein SA) | 3 | -3.26 (active) | -1.87 |
| Rpsa (ribosomal protein SA) | 4 | 3.66 (active) | -0.669 |
| Rpsa (ribosomal protein SA) | 5 | -0.151 | -0.669 |
| Rpsa (ribosomal protein SA) | 6 | -3.54 (active) | -0.669 |
| Krtap9-1 (keratin associated protein 9-1) | 1 | -2.22 (active) | -2.81 |
| Krtap9-1 (keratin associated protein 9-1) | 2 | -2.91 (active) | -2.81 |
| Krtap9-1 (keratin associated protein 9-1) | 3 | -3 (active) | -2.81 |
| Krtap9-1 (keratin associated protein 9-1) | 4 | 1.63 | -0.472 |
| Krtap9-1 (keratin associated protein 9-1) | 5 | 0.104 | -0.472 |
| Krtap9-1 (keratin associated protein 9-1) | 6 | -2.04 (active) | -0.472 |
| Fau (FAU ubiquitin like and ribosomal protein S30 fusion) | 1 | -3.06 (active) | -3.55 |
| Fau (FAU ubiquitin like and ribosomal protein S30 fusion) | 2 | -3.55 (active) | -3.55 |
| Fau (FAU ubiquitin like and ribosomal protein S30 fusion) | 3 | -3.91 (active) | -3.55 |
| Fau (FAU ubiquitin like and ribosomal protein S30 fusion) | 4 | -1.13 | -1.76 |
| Fau (FAU ubiquitin like and ribosomal protein S30 fusion) | 5 | -1.57 | -1.76 |
| Fau (FAU ubiquitin like and ribosomal protein S30 fusion) | 6 | -3.22 (active) | -1.76 |
| Apobec2 | 1 | 3.25 (active) | -3.01 |
| Apobec2 | 2 | -3.01 (active) | -3.01 |
| Apobec2 | 3 | -5.9 (active) | -3.01 |
| Apobec2 | 4 | 5.12 (active) | 1.38 |
| Apobec2 | 5 | 1.38 | 1.38 |
| Apobec2 | 6 | -1.71 | 1.38 |
| Hnrnpd (heterogeneous nuclear ribonucleoprotein D) | 1 | -0.615 | -3.72 |
| Hnrnpd (heterogeneous nuclear ribonucleoprotein D) | 2 | -3.72 (active) | -3.72 |
| Hnrnpd (heterogeneous nuclear ribonucleoprotein D) | 3 | -4.42 (active) | -3.72 |
| Hnrnpd (heterogeneous nuclear ribonucleoprotein D) | 4 | 1.81 | 0.757 |
| Hnrnpd (heterogeneous nuclear ribonucleoprotein D) | 5 | 1.25 | 0.757 |
| Hnrnpd (heterogeneous nuclear ribonucleoprotein D) | 6 | -1.05 | 0.757 |
| Or10g1b (olfactory receptor family 10 subfamily G member 1B) | 1 | 0.035 | -1.95 |
| Or10g1b (olfactory receptor family 10 subfamily G member 1B) | 2 | -1.79 | -1.95 |
| Or10g1b (olfactory receptor family 10 subfamily G member 1B) | 3 | -4.87 (active) | -1.95 |
| Or10g1b (olfactory receptor family 10 subfamily G member 1B) | 4 | 2.15 (active) | -0.0747 |
| Or10g1b (olfactory receptor family 10 subfamily G member 1B) | 5 | 1.15 | -0.0747 |
| Or10g1b (olfactory receptor family 10 subfamily G member 1B) | 6 | -1.24 | -0.0747 |
| Trav13-5 (T cell receptor alpha variable 13-5) | 1 | 2.83 (active) | -1.34 |
| Trav13-5 (T cell receptor alpha variable 13-5) | 2 | -1.34 | -1.34 |
| Trav13-5 (T cell receptor alpha variable 13-5) | 3 | -2.03 (active) | -1.34 |
| Trav13-5 (T cell receptor alpha variable 13-5) | 4 | -0.294 | -1.23 |
| Trav13-5 (T cell receptor alpha variable 13-5) | 5 | -1.41 | -1.23 |
| Trav13-5 (T cell receptor alpha variable 13-5) | 6 | -0.541 | -1.23 |
| Zeb2 (zinc finger E-box binding homeobox 2) | 1 | -2.59 (active) | -3.64 |
| Zeb2 (zinc finger E-box binding homeobox 2) | 2 | -3.64 (active) | -3.64 |
| Zeb2 (zinc finger E-box binding homeobox 2) | 3 | -6.12 (active) | -3.64 |
| Zeb2 (zinc finger E-box binding homeobox 2) | 4 | -0.992 | -2.23 |
| Zeb2 (zinc finger E-box binding homeobox 2) | 5 | -2.42 (active) | -2.23 |
| Zeb2 (zinc finger E-box binding homeobox 2) | 6 | -2.79 (active) | -2.23 |
| Trim12a (tripartite motif-containing 12A) | 1 | -2.85 (active) | -4.95 |
| Trim12a (tripartite motif-containing 12A) | 2 | -4.95 (active) | -4.95 |
| Trim12a (tripartite motif-containing 12A) | 3 | -5.57 (active) | -4.95 |
| Trim12a (tripartite motif-containing 12A) | 4 | 0.28 | -0.575 |
| Trim12a (tripartite motif-containing 12A) | 5 | 0.135 | -0.575 |
| Trim12a (tripartite motif-containing 12A) | 6 | -1.07 | -0.575 |
| Tmem139 (transmembrane protein 139) | 1 | 1.56 | -1.46 |
| Tmem139 (transmembrane protein 139) | 2 | -1.46 | -1.46 |
| Tmem139 (transmembrane protein 139) | 3 | -4.34 (active) | -1.46 |
| Tmem139 (transmembrane protein 139) | 4 | 4.67 (active) | 0.635 |
| Tmem139 (transmembrane protein 139) | 5 | 1.44 | 0.635 |
| Tmem139 (transmembrane protein 139) | 6 | -1.14 | 0.635 |

7 of these entries in another layout:
Apobec2 #6 | TNF reporter z-score, mean: -1.71; gene median z, three same-vendor siRNAs: 1.38
Hnrnpd (heterogeneous nuclear ribonucleoprotein D) #1 | TNF reporter z-score, mean: -0.615; gene median z, three same-vendor siRNAs: -3.72
Hnrnpd (heterogeneous nuclear ribonucleoprotein D) #2 | TNF reporter z-score, mean: -3.72 (active); gene median z, three same-vendor siRNAs: -3.72
Hnrnpd (heterogeneous nuclear ribonucleoprotein D) #3 | TNF reporter z-score, mean: -4.42 (active); gene median z, three same-vendor siRNAs: -3.72
Hnrnpd (heterogeneous nuclear ribonucleoprotein D) #4 | TNF reporter z-score, mean: 1.81; gene median z, three same-vendor siRNAs: 0.757
Hnrnpd (heterogeneous nuclear ribonucleoprotein D) #5 | TNF reporter z-score, mean: 1.25; gene median z, three same-vendor siRNAs: 0.757
Hnrnpd (heterogeneous nuclear ribonucleoprotein D) #6 | TNF reporter z-score, mean: -1.05; gene median z, three same-vendor siRNAs: 0.757
